Reference: patent publication US8435939B2, “Polypeptide anti-HIV agent containing the same” (priority 2000, dated 2013)
Not every detail of the peptide structures is certain; ends, links or a residue may be inferred. Some compounds share one wording; it may come from a single statement. Where a SMILES comes first, the peptide text is derived from it. Bridges are numbered along the chain shown (N, C = ends). [ ]: non-standard residue; d: D form. 2Nal = N[C@@H](Cc1ccc2ccccc2c1)C(=O)O; Cit = NC(=O)NCCC[C@H](N)C(=O)O

tested on: HIV-1 (IIIB) strain; test: Anti-HIV activity: inhibition of MT-4 cell death by HIV infection (MTT method); format: cell-based; conditions: conclusion drawn from Table 3
Method: HIV-1 (IIIB) strain obtained from MOLT/HIV-1 (IIIB) cell previously infected by HIV-1 was used. The polypeptide of the present invention was added to MT-4 CD4^+ T cells infected by HIV in various kinds of concentrations, and a number of living cells after culturing at 37° C. for 5 days was determined by using a 3′-(4,5-dimethylthiazol-2-yl)-2,5-diphenyltetrazolinium bromide (MTT) method. Anti-HIV activity is shown by a concentration (EC50 value), where MT-4 cell death by HIV infection is inhibited by 50%. Cytotoxicity of the peptide according to the present invention was shown by a 50% survival concentration (Test I: CC50 value) by culturing virus-uninfected MT-4 cells with the polypeptide according to the present invention in various concentrations, and determining a number of living cells by the MTT method. Moreover, a number of living cells of human peripheral blood mononuclear cells (monocyte) (PBMC) was determined by trypan blue dyeing method, and shown by a 50% survival concentration (Test II: CC50 value). Respective ratios of the CC50 value and the EC50 value were shown as a selective index (SI). Obtained values were summarized in Table 3 using the conventionally known polypeptides T134 and T140, and an anti-HIV compound: 3′-azido-2′,3′-dideoxythymidine (AZT) used as a medicine as a control anti-HIV agent.

Compound	anti-HIV activity in words, compared with T140
N=C(N)NCCC[C@H](NC(=O)[C@@H]1CSSC[C@H](NC(=O)[C@H](Cc2ccc3ccccc3c2)NC(=O)[C@H](CCCNC(=N)N)NC(=O)[C@@H](N)CCCNC(=N)N)C(=O)N[C@@H](Cc2ccc(O)cc2)C(=O)N[C@@H](CCCNC(N)=O)C(=O)N[C@@H](CCCCN)C(=O)N[C@H](CCCNC(N)=O)C(=O)N2CCC[C@H]2C(=O)N[C@@H](Cc2ccc(O)cc2)C(=O)N[C@@H](CCCNC(=N)N)C(=O)N[C@@H](CCCNC(N)=O)C(=O)N1)C(=O)O [TC14011, H-Arg-Arg-Nal-Cys-Tyr-Cit-Lys-DCit-Pro-Tyr-Arg-Cit-Cys-Arg-OH]	higher anti-HIV activity
N=C(N)NCCC[C@H](NC(=O)[C@@H]1CSSC[C@H](NC(=O)[C@H](Cc2ccc3ccccc3c2)NC(=O)[C@H](CCCNC(=N)N)NC(=O)[C@@H](N)CCCNC(=N)N)C(=O)N[C@@H](Cc2ccc(O)cc2)C(=O)N[C@@H](CCCNC(N)=O)C(=O)N[C@@H](CCCCN)C(=O)N[C@H](CCCCN)C(=O)N2CCC[C@H]2C(=O)N[C@@H](Cc2ccc(O)cc2)C(=O)N[C@@H](CCCNC(=N)N)C(=O)N[C@@H](CCCNC(N)=O)C(=O)N1)C(N)=O [TN14003, H-Arg-Arg-Nal-Cys-Tyr-Cit-Lys-DLys-Pro-Tyr-Arg-Cit-Cys-Arg-NH2] (H-RR[2Nal]CY[Cit]K[dK]PYR[Cit]CR-NH2; disulfide 4-13 (inferred))	higher anti-HIV activity
N=C(N)NCCC[C@H](NC(=O)[C@@H]1CSSC[C@H](NC(=O)[C@H](Cc2ccc3ccccc3c2)NC(=O)[C@H](CCCNC(=N)N)NC(=O)[C@@H](N)CCCNC(=N)N)C(=O)N[C@@H](Cc2ccc(O)cc2)C(=O)N[C@@H](CCCNC(=N)N)C(=O)N[C@@H](CCCCN)C(=O)N[C@H](CCCNC(N)=O)C(=O)N2CCC[C@H]2C(=O)N[C@@H](Cc2ccc(O)cc2)C(=O)N[C@@H](CCCNC(=N)N)C(=O)N[C@@H](CCCNC(N)=O)C(=O)N1)C(N)=O [TN14005, H-Arg-Arg-Nal-Cys-Tyr-Arg-Lys-DCit-Pro-Tyr-Arg-Cit-Cys-Arg-NH2]	substantially the same anti-HIV activity as that of the conventionally known T140
N=C(N)NCCC[C@H](NC(=O)[C@@H]1CSSC[C@H](NC(=O)[C@H](Cc2ccc3ccccc3c2)NC(=O)[C@H](CCCNC(=N)N)NC(=O)[C@@H](N)CCCNC(N)=O)C(=O)N[C@@H](Cc2ccc(O)cc2)C(=O)N[C@@H](CCCNC(=N)N)C(=O)N[C@@H](CCCCN)C(=O)N[C@H](CCCNC(N)=O)C(=O)N2CCC[C@H]2C(=O)N[C@@H](Cc2ccc(O)cc2)C(=O)N[C@@H](CCCNC(=N)N)C(=O)N[C@@H](CCCNC(N)=O)C(=O)N1)C(N)=O [TC14018, H-Cit-Arg-Nal-Cys-Tyr-Arg-Lys-DCit-Pro-Tyr-Arg-Cit-Cys-Arg-NH2]	higher anti-HIV activity
N=C(N)NCCC[C@H](NC(=O)[C@@H]1CSSC[C@H](NC(=O)[C@H](Cc2ccc3ccccc3c2)NC(=O)[C@H](CCCNC(=N)N)NC(=O)[C@@H](N)CCCNC(=N)N)C(=O)N[C@@H](Cc2ccc(O)cc2)C(=O)N[C@@H](CCCNC(N)=O)C(=O)N[C@@H](CCCCN)C(=O)N[C@H](CCCCN)C(=O)N2CCC[C@H]2C(=O)N[C@@H](Cc2ccc(O)cc2)C(=O)N[C@@H](CCCNC(=N)N)C(=O)N[C@@H](CCCNC(N)=O)C(=O)N1)C(=O)O [TC14003, H-Arg-Arg-Nal-Cys-Tyr-Cit-Lys-DLys-Pro-Tyr-Arg-Cit-Cys-Arg-OH] (H-RR[2Nal]CY[Cit]K[dK]PYR[Cit]CR-OH; disulfide 4-13)	substantially the same anti-HIV activity as that of the conventionally known T140
